Data taken from the supplement of paper PMC11451515.

Experiments:
NOMO1 [1] = test: cell viability relative to DMSO control; higher = less cytotoxic; details: RPMI 5 mM glucose + 10% FBS, 48 h
Method in brief: (§1)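 Viability, reported as a per-plate percentage of DMSO wells with cell-free wells as background, came from CellTiter-Glo One luminescence. Reading took place after 48 h at 37°C. Before that, NOMO1 or SEM (500 cells/well) or P12-Ichikawa (1000 cells/well) leukemia cells, adapted for at least four passages in each medium, were seeded in 1536-well plates (5 μl) and pin-dosed with library compounds in DMSO, 47 μM to 0.79 nM over 11 threefold points.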

SEM cells [2] = test: as above; details: 48 h
Method in brief: as §1

NOMO1 [3] = test: AUC of viability dose-response curve (% viability x log10 dose units); higher = less sensitive; details: 48 h
Method in brief: (§2)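 Leukemia cells adapted to each medium (500 or 1000 cells/well, 1536-well plates) were exposed to library compounds in DMSO for 48 h at 37°C at 11 threefold doses, 47 μM to 0.79 nM. Luminescence by CellTiter-Glo One was normalised per plate to DMSO and cell-free wells, then fitted with a four-parameter log-logistic curve on log10 dose. Curves above full viability were scaled and quality-control failures removed before area under the curve was integrated by trapezoidal rule.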

P12-Ichikawa = test: as above; details: 48 h
Method in brief: as §2

SEM cells [4] = test: as above; details: 48 h
Method in brief: as §2

CC1=C(C=CC=C1)N2C(=O)C3=C(C=CC=C3C)\N=C2\C[N]4N=C(C5=CC(=CC=C5)O)C6=C(N)N=CN=C46
Details	AUC of viability dose-response curve	cell viability [%]
NOMO1 [1], 0.000781 µM	–	107
NOMO1 [1], 0.00234 µM	–	114
NOMO1 [1], 0.00702 µM	–	125
NOMO1 [1], 0.0211 µM	–	129
NOMO1 [1], 0.0632 µM	–	139
NOMO1 [1], 0.19 µM	–	124
NOMO1 [1], 0.569 µM	–	92.5
NOMO1 [1], 1.71 µM	–	54.7
NOMO1 [1], 5.12 µM	–	16.4
NOMO1 [1], 15.4 µM	–	12.9
NOMO1 [1], 46.1 µM	–	13.2
NOMO1 [3], HPLM + 10% dialyzed FBS	358	–
NOMO1 [3], RPMI 5 mM glucose + 10% FBS	333	–
NOMO1 [3], RPMI 5 mM glucose + 10% dialyzed FBS	371	–
P12-Ichikawa, HPLM + 10% dialyzed FBS	402	–
P12-Ichikawa, RPMI 5 mM glucose + 10% FBS	395	–
P12-Ichikawa, RPMI 5 mM glucose + 10% dialyzed FBS	409	–
SEM cells [4], HPLM + 10% dialyzed FBS	465	–
SEM cells [4], RPMI 5 mM glucose + 10% FBS	462	–
SEM cells [4], RPMI 5 mM glucose + 10% dialyzed FBS	457	–

cell viability [%], SEM cells [2]
Details	HPLM + 10% dialyzed FBS	RPMI 5 mM glucose + 10% FBS	RPMI 5 mM glucose + 10% dialyzed FBS
0.000781 µM	100	106	118
0.00234 µM	106	115	117
0.00702 µM	102	123	138
0.0211 µM	108	118	125
0.0632 µM	119	126	122
0.19 µM	121	114	123
0.569 µM	112	105	131
1.71 µM	110	112	129
5.12 µM	105	115	110
15.4 µM	96.8	90.3	105
46.1 µM	89.4	91.1	95.7
